Changes are numbered by the printed parent chain. Results are given in words; binding and its absence hold for the method and conditions named. Some binding calls cover weakened binding; strength is not graded here. Sequences can lack the tags named with a protein.
Columns and labels:
[1] = molecular target: T1, Full-length SDS-22 (1-326) E153A mutant fused to the GAL4 DNA binding domain (C. elegans) (UniProt P45969); assay: two-hybrid; GAL4-based yeast two-hybrid (Gateway) in MAV203 yeast; SDS-22 fused to the DNA binding domain (bait), GSP-1 and GSP-2 fused to the activation domain (prey); growth on medium lacking leucine, tryptophan and histidine with 7.5 mM 3-AT
T1 sequence: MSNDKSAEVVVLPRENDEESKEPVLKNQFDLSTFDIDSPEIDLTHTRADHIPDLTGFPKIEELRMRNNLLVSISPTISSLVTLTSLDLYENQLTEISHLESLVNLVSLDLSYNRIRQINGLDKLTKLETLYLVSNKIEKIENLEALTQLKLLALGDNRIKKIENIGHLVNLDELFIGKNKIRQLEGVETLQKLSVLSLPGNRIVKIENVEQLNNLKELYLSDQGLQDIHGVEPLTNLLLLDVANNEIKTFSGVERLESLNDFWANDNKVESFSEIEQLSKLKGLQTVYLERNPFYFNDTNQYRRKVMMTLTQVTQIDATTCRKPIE

Amino acid sequences for entries named in this document (tags omitted).
UniProt Q27497: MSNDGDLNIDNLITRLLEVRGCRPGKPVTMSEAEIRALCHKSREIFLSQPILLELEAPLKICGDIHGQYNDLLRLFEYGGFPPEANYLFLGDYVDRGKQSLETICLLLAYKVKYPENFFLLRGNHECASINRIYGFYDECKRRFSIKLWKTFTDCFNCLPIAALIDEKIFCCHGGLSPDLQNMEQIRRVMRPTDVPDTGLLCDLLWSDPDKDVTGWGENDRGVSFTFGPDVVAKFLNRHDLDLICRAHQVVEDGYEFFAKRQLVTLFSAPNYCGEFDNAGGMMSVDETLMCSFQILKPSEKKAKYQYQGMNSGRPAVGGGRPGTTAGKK
UniProt P48727: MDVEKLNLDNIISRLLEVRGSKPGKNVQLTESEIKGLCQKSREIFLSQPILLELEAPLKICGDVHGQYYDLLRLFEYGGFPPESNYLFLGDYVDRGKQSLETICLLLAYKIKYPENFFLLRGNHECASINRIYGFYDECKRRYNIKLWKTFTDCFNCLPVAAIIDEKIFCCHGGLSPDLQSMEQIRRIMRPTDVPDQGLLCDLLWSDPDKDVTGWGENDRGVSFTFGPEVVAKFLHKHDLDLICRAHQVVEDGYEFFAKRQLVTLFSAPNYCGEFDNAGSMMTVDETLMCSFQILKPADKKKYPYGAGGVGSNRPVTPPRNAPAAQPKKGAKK

[2] = molecular target: T2, Full-length SDS-22 (1-326) wild type fused to the GAL4 DNA binding domain (C. elegans) (UniProt P45969); assay: as above
T2 sequence: T1 sequence with A153E

binding [1]	binding [2]	Substance
no binding	binds	GSP-1 (full-length cDNA) fused to the GAL4 activation domain (from UniProt Q27497 1-329) (enzyme)
no binding	binds	GSP-2 (full-length cDNA) fused to the GAL4 activation domain (from UniProt P48727 1-333) (enzyme)

Source: paper doi:10.1101/2025.01.07.631699
